Test results as given in PMC4832077.

Biological target: T1, podoplanin (PDPN) expressed in lymphatic endothelial cells (human (endogenous in primary LECs)) (UniProt Q86YL7)
T1 sequence (chain, carries α2,3-sialylated glycans (bound by MAA II)): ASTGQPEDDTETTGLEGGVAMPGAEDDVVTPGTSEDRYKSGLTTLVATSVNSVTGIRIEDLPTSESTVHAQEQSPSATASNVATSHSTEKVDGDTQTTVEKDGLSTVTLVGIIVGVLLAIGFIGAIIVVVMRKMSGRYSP
Experiment: co-IP; anti-PDPN (clone E-1) on AminoLink Plus resin; lysates of serum-starved primary LECs, untreated or treated with galectin-8 for 15 min at 37 °C; IP buffer 25 mM Tris, 150 mM NaCl, 1 mM EDTA, 1% NP-40, 5% glycerol, pH 7.4; 4 °C overnight; western blot

“integrin α5 (human (endogenous in primary LECs)) (receptor)” was tested, and the binding was “binds”.

“integrin αv (human (endogenous in primary LECs)) (receptor)” was tested, and the binding was “binds”.

No constants are given. Whether binding was seen depends on the method and setting. In cells and extracts the contact can be indirect. A result given as binding can be weak or reduced; the word gives no strength.
